Patent EP2420510B1 (BIO-FD&C Co., Ltd., priority 2010, dated 2013)

Assay: general procedure: Fmoc solid-phase peptide synthesis; HOBt/DCC
Conditions: whole synthesis

| Substance | isolated yield |
| --- | --- |
| PEPTIDE1{[Nic].K.T.T.K.S}$$$$V2.0 | 53% |
| PEPTIDE1{[Nic].Y.G.G.F.M}$$$$V2.0 | 65% |

HELM strings list residues between dots; [ac] is acetyl, [am] amide, other brackets name non-standard units.
